In US8410028 (dated 2013):

Columns and labels:
[1] = general procedure: Fmoc solid-phase peptide synthesis; Glycine-Wang resin; HATU; settings: whole synthesis, scale 0.3 mmol
[2] = general procedure: Fmoc solid-phase peptide synthesis; Rink-amide resin; Glycine-Wang resin; HATU; settings: cyclisation step, on linear precursor

Azidoacetyl-GPF[Pra]G-OH (SEQ ID NO: 920)
isolated mass [1]: 83 mg
isolated yield [1]: 50%

cyclic Azidoacetyl-Gly-Pro-Phe-Pra-Gly-OH
cyclisation yield [2]: 20%

cyclic Azidoacetyl-Gly-Pro-Phe-Pra-NH2
cyclisation yield [2]: 32%

Non-standard residues stand in square brackets, D forms with d. *: point of attachment. Azidoacetyl = [N-]=[N+]=NCC(=O)*; Pra = C#CC[C@H](N)C(=O)O
